According to publication PMC10400651:
Construct, isoform or probe ends are uncertain for at least one entry. Results from cells or extracts need not show a direct contact. A negative result means that nothing was seen under these conditions.

Molecular target: p53 WT (LNCaP lysate) (UniProt P04637)
Assay: EMSA
Settings: Thermo EMSA kit (20148) protocol; 6% native PAGE; supershift with 1 ug anti-p53 for 1 h at room temperature; recombinant p53 eluted in PBS; salt and pH not stated; protein in an extract; label: biotin

Question: Does “GCCCCCTCGCGCCCCGCCCCTTGTC (double strand) [CTNNB1-probe1 (MP53BS)]” bind?
Answer: no binding
